# In the supplement of paper PMC8728848:
# The other results are listed elsewhere or left out.
# B1: HA-61200 (Pseudomonas aeruginosa), Q02SP8_PSEAB (protein)
# chain: MNKCYALVWNVSQGCWNVVSEGSRRRGKPAGAKAAIASVLALLGATALAPAYALPSGGTVVGGSANGEIHLSGGNSLSVNQKVDKLIANWDSFSVAAGERVIFNQPSSSSIALNRVIGTKASDIQGRIDANGQVFLVNPNGVLFGRGAQVNVGGLVASTLDITDAEFNGNSSRYRFTGPSTNGVLNHGGAITAAEGGSIALLGAQVDNRGTVLAQMGGVGLGAGSDLTLNFDGNKLLDIRVDAGVANALASNGGLLKADGGRVLMAARTANALLNTVVNSQGAIEARSLRGKNGRIVLDG
# How the values were obtained:
# Assay in all cases: glycan array binding signal (z-score within array); higher = stronger binding
# Settings in all cases: glycan notation: IUPAC condensed, linker removed
# [1] = molecular target: Neu5Ac(a2-6)Gal(b1-4)GlcNAc(b1-3)Gal(b1-4)GlcNAc(b1-3)Gal(b1-4)GlcNAc(b1-2)Man(a1-3)[Neu5Ac(a2-6)Gal(b1-4)GlcNAc(b1-3)Gal(b1-4)GlcNAc(b1-3)Gal(b1-4)GlcNAc(b1-2)Man(a1-6)]GalNAc
# How it was run: (§1)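 Glycan array binding is given as a within-array Z-score, which can be read as non-binding when negative. The arrays, 3228 of them, came from the Consortium for Functional Glycomics database and were retained only where the protein sequence was available. Z-scores were averaged across arrays of the same protein sequence at different concentrations or buffers and across linkers.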
# [2] = molecular target: Neu5Ac(a2-6)Gal(b1-4)GlcNAc(b1-3)Gal(b1-4)GlcNAc(b1-3)GalNAc
# How it was run: as §1
# [3] = molecular target: Neu5Ac(a2-6)Gal(b1-4)GlcNAc(b1-3)Gal(b1-4)GlcNAc(b1-3)[Neu5Ac(a2-6)Gal(b1-4)GlcNAc(b1-3)Gal(b1-4)GlcNAc(b1-6)]GalNAc
# How it was run: as §1
# [4] = molecular target: Neu5Ac(a2-6)Gal(b1-4)GlcNAc(b1-3)Gal(b1-4)GlcNAc(b1-6)[Gal(b1-3)]GalNAc
# How it was run: as §1
# [5] = molecular target: Neu5Ac(a2-6)Gal(b1-4)GlcNAc(b1-3)Gal(b1-4)[Fuc(a1-3)]GlcNAc(b1-3)Gal(b1-4)[Fuc(a1-3)]GlcNAc
# How it was run: as §1
# [6] = molecular target: Neu5Ac(a2-6)Gal(b1-4)GlcNAc(b1-3)GalNAc
# How it was run: as §1
# [7] = molecular target: Neu5Ac(a2-6)Gal(b1-4)GlcNAc(b1-3)[Neu5Ac(a2-6)Gal(b1-4)GlcNAc(b1-6)]GalNAc
# How it was run: as §1
# [8] = molecular target: Neu5Ac(a2-6)Gal(b1-4)GlcNAc(b1-6)GalNAc
# How it was run: as §1
# [9] = molecular target: Neu5Ac(a2-6)Gal(b1-4)GlcNAc(b1-6)[Gal(b1-3)GlcNAc(b1-3)]Gal(b1-4)Glc
# How it was run: as §1
# [10] = molecular target: Neu5Ac(a2-6)Gal(b1-4)GlcNAc(b1-6)[Gal(b1-3)]GalNAc
# How it was run: as §1
# [11] = molecular target: Neu5Ac(a2-6)Gal(b1-4)GlcNAc6S
# How it was run: as §1
# Neu5Ac(a2-6)GalNAc = molecular target: Neu5Ac(a2-6)GalNAc
# How it was run: as §1
# [12] = molecular target: Neu5Ac(a2-6)GalNAc(b1-4)GlcNAc
# How it was run: as §1
# [13] = molecular target: Neu5Ac(a2-6)GalNAc(b1-4)GlcNAc6S
# How it was run: as §1
# [14] = molecular target: Neu5Ac(a2-6)GlcNAc(b1-4)GlcNAc
# How it was run: as §1
# [15] = molecular target: Neu5Ac(a2-6)GlcNAc(b1-4)GlcNAc(b1-4)GlcNAc
# How it was run: as §1
# Neu5Ac(a2-8)Neu5Ac = molecular target: Neu5Ac(a2-8)Neu5Ac
# How it was run: as §1
# [16] = molecular target: Neu5Ac(a2-8)Neu5Ac(a2-3)Gal(b1-3)GalNAc(b1-4)[Neu5Ac(a2-3)]Gal(b1-4)Glc
# How it was run: as §1
# [17] = molecular target: Neu5Ac(a2-8)Neu5Ac(a2-3)Gal(b1-3)GalNAc(b1-4)[Neu5Ac(a2-8)Neu5Ac(a2-3)]Gal(b1-4)Glc
# How it was run: as §1
# [18] = molecular target: Neu5Ac(a2-8)Neu5Ac(a2-3)Gal(b1-4)Glc
# How it was run: as §1
# [19] = molecular target: Neu5Ac(a2-8)Neu5Ac(a2-3)Gal(b1-4)GlcNAc
# How it was run: as §1
# [20] = molecular target: Neu5Ac(a2-8)Neu5Ac(a2-3)[Gal(b1-3)GalNAc(b1-4)]Gal(b1-4)Glc
# How it was run: as §1
# [21] = molecular target: Neu5Ac(a2-8)Neu5Ac(a2-3)[GalNAc(b1-4)]Gal(b1-4)Glc
# How it was run: as §1
# [22] = molecular target: Neu5Ac(a2-8)Neu5Ac(a2-8)Neu5Ac
# How it was run: as §1
# [23] = molecular target: Neu5Ac(a2-8)Neu5Ac(a2-8)Neu5Ac(a2-3)Gal(b1-4)Glc
# How it was run: as §1
# [24] = molecular target: Neu5Ac(a2-8)Neu5Ac(a2-8)Neu5Ac(a2-3)[Gal(b1-3)GalNAc(b1-4)]Gal(b1-4)Glc
# How it was run: as §1
# [25] = molecular target: Neu5Ac(a2-8)Neu5Ac(a2-8)Neu5Ac(a2-3)[GalNAc(b1-4)]Gal(b1-4)Glc
# How it was run: as §1
# [26] = molecular target: Neu5Ac(a2-8)Neu5Ac(a2-8)Neu5Ac(a2-8)Neu5Ac(a2-3)[GalNAc(b1-4)]Gal(b1-4)Glc
# How it was run: as §1
# [27] = molecular target: Neu5Ac(a2-8)Neu5Gc(a2-3)Gal(b1-4)GlcNAc
# How it was run: as §1
# [28] = molecular target: Neu5Ac(b2-6)Gal(b1-4)GlcNAc
# How it was run: as §1
# Neu5Ac(b2-6)GalNAc = molecular target: Neu5Ac(b2-6)GalNAc
# How it was run: as §1
# [29] = molecular target: Neu5Ac9Ac(a2-3)Gal(b1-3)GlcNAc
# How it was run: as §1
# [30] = molecular target: Neu5Ac9Ac(a2-3)Gal(b1-4)GlcNAc
# How it was run: as §1
# [31] = molecular target: Neu5Ac9Ac(a2-6)Gal(b1-4)GlcNAc
# How it was run: as §1
# [32] = molecular target: Neu5Gc(a2-3)Gal(b1-3)GlcNAc
# How it was run: as §1
# [33] = molecular target: Neu5Gc(a2-3)Gal(b1-3)[Fuc(a1-4)]GlcNAc
# How it was run: as §1
# Neu5Gc(a2-3)Gal(b1-4)Glc = molecular target: Neu5Gc(a2-3)Gal(b1-4)Glc
# How it was run: as §1
# [34] = molecular target: Neu5Gc(a2-3)Gal(b1-4)GlcNAc
# How it was run: as §1
# [35] = molecular target: Neu5Gc(a2-3)Gal(b1-4)GlcNAc(b1-3)Gal(b1-4)GlcNAc(b1-2)Man(a1-3)[Neu5Gc(a2-3)Gal(b1-4)GlcNAc(b1-3)Gal(b1-4)GlcNAc(b1-2)Man(a1-6)]Man(b1-4)GlcNAc(b1-4)GlcNAc
# How it was run: as §1
# [36] = molecular target: Neu5Gc(a2-3)Gal(b1-4)[Fuc(a1-3)]GlcNAc
# How it was run: as §1
# [37] = molecular target: Neu5Gc(a2-6)Gal(b1-4)GlcNAc
# How it was run: as §1
# Neu5Gc(a2-6)GalNAc = molecular target: Neu5Gc(a2-6)GalNAc
# How it was run: as §1
# [38] = molecular target: Neu5Gc(a2-8)Neu5Ac(a2-3)Gal(b1-4)GlcNAc
# How it was run: as §1
# [39] = molecular target: Neu5Gc(a2-8)Neu5Gc(a2-3)Gal(b1-4)GlcNAc
# How it was run: as §1
# [40] = molecular target: Neu5Gc(a2-8)Neu5Gc(a2-3)Gal(b1-4)GlcNAc(b1-3)Gal(b1-4)GlcNAc
# How it was run: as §1
# [41] = molecular target: Neu5Gc(a2-8)Neu5Gc(a2-6)Gal(b1-4)GlcNAc
# How it was run: as §1
# [42] = molecular target: Neu5Gc(b2-6)Gal(b1-4)GlcNAc
# How it was run: as §1
binder,measurement,setting,value
B1,glycan array binding signal (z-score),[1],4.49
same,glycan array binding signal (z-score),[2],-0.3
same,glycan array binding signal (z-score),[3],-0.534
same,glycan array binding signal (z-score),[4],1.3
same,glycan array binding signal (z-score),[5],0.975
same,glycan array binding signal (z-score),[6],0.793
same,glycan array binding signal (z-score),[7],-0.668
same,glycan array binding signal (z-score),[8],-0.169
same,glycan array binding signal (z-score),[9],-0.627
same,glycan array binding signal (z-score),[10],0.199
same,glycan array binding signal (z-score),[11],-1.15
same,glycan array binding signal (z-score),Neu5Ac(a2-6)GalNAc,0.863
same,glycan array binding signal (z-score),[12],-0.744
same,glycan array binding signal (z-score),[13],0.146
same,glycan array binding signal (z-score),[14],-0.508
same,glycan array binding signal (z-score),[15],-0.803
same,glycan array binding signal (z-score),Neu5Ac(a2-8)Neu5Ac,-0.291
same,glycan array binding signal (z-score),[16],-0.398
same,glycan array binding signal (z-score),[17],-0.215
same,glycan array binding signal (z-score),[18],-0.588
same,glycan array binding signal (z-score),[19],-0.089
same,glycan array binding signal (z-score),[20],0.374
same,glycan array binding signal (z-score),[21],0.462
same,glycan array binding signal (z-score),[22],-0.598
same,glycan array binding signal (z-score),[23],0.107
same,glycan array binding signal (z-score),[24],-0.075
same,glycan array binding signal (z-score),[25],0.378
same,glycan array binding signal (z-score),[26],1.17
same,glycan array binding signal (z-score),[27],-0.854
same,glycan array binding signal (z-score),[28],0.6
same,glycan array binding signal (z-score),Neu5Ac(b2-6)GalNAc,-1.09
same,glycan array binding signal (z-score),[29],-0.912
same,glycan array binding signal (z-score),[30],0.347
same,glycan array binding signal (z-score),[31],-0.256
same,glycan array binding signal (z-score),[32],-0.838
same,glycan array binding signal (z-score),[33],0.421
same,glycan array binding signal (z-score),Neu5Gc(a2-3)Gal(b1-4)Glc,-0.015
same,glycan array binding signal (z-score),[34],-0.785
same,glycan array binding signal (z-score),[35],0.033
same,glycan array binding signal (z-score),[36],-0.117
same,glycan array binding signal (z-score),[37],-0.584
same,glycan array binding signal (z-score),Neu5Gc(a2-6)GalNAc,-0.811
same,glycan array binding signal (z-score),[38],-0.361
same,glycan array binding signal (z-score),[39],-0.346
same,glycan array binding signal (z-score),[40],-0.132
same,glycan array binding signal (z-score),[41],-0.263
same,glycan array binding signal (z-score),[42],1.25

# Random excerpt: four entries already listed
binder,measurement,setting,value
B1,glycan array binding signal (z-score),[42],1.25
same,glycan array binding signal (z-score),[20],0.374
same,glycan array binding signal (z-score),[14],-0.508
same,glycan array binding signal (z-score),[23],0.107
